Experiment: solution-phase peptide synthesis
Details: coupling step

Dov-Val-Dil-Dap-Pro-OCH3 gave a step yield of 69%.
